Data source: PubChem BioAssay AID1508597 (Cure First, 2020)
Purpose: 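Genes whose silencing sensitises or protects ovarian cancer cells against rucaparib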 (primary screen). System: human ovarian carcinoma lines grown from tumours: OCI-P5x (papillary serous) and OCI-C5x (clear cell). Knock-down reagent: siRNA pool against human genes, 1.25 pmol siRNA per well. Timing: 72 h or 96 h, depending on the cell culture. Treatment: rucaparib 20 µM (about IC30) or vehicle, present until read-out. Rucaparib or vehicle: Rucaparib. Cell line: OCI-C5x (clear cell). Measured: 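Luminescent ATP-based viability assay read 72 or 96 h after transfection, depending on culture, given as normalised percent viability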. Direction: viability, normalised: higher = more viable cells remaining. Hit rule: 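a well counts as a hit if its normalised viability is under 80 percent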. Calls: active = viability under 80%; inactive = viability 80% or more.
Shown is a random part of the about 2,100 reagents, in one setting of the screen. 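Calls flag viability under 80% in either arm, not effects specific to rucaparib; the reference for percent is not stated.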 The record does not give: the 100% reference.

With MUTYH (GeneID 4595), technical replicate 1, how do the results read?
viability, normalised (%): 40.4; Outcome: active

What did the screen give for MUTYH (GeneID 4595), technical replicate 2?
viability, normalised (%): 46.3; Outcome: active

What is on record for MUTYH (GeneID 4595), technical replicate 3?
viability, normalised (%): 36.4; Outcome: active

How did the screen score FXR1 (GeneID 8087), technical replicate 1?
viability, normalised (%): 42.9; Outcome: active

What did the screen give for FXR1 (GeneID 8087), technical replicate 2?
viability, normalised (%): 40.3; Outcome: active

How did the screen score FXR1 (GeneID 8087), technical replicate 3?
viability, normalised (%): 48.1; Outcome: active

With DMBT1 (GeneID 1755), technical replicate 1, what does the deposit list?
viability, normalised (%): 32.1; Outcome: active

How did the screen score DMBT1 (GeneID 1755), technical replicate 2?
viability, normalised (%): 44.2; Outcome: active

What did the screen give for DMBT1 (GeneID 1755), technical replicate 3?
viability, normalised (%): 30.7; Outcome: active

For MAPKAPK3 (GeneID 7867), technical replicate 1, how do the results read?
viability, normalised (%): 35.7; Outcome: active

For MAPKAPK3 (GeneID 7867), technical replicate 2, what was measured?
viability, normalised (%): 39.1; Outcome: active

For MAPKAPK3 (GeneID 7867), technical replicate 3, how do the results read?
viability, normalised (%): 52.7; Outcome: active

What is on record for FLT1 (GeneID 2321), technical replicate 1?
viability, normalised (%): 44.2; Outcome: active

Which result is listed for FLT1 (GeneID 2321), technical replicate 2?
viability, normalised (%): 41; Outcome: active

For FLT1 (GeneID 2321), technical replicate 3, what does the deposit list?
viability, normalised (%): 37.1; Outcome: active

What did the screen give for FER (GeneID 2241), technical replicate 1?
viability, normalised (%): 42.1; Outcome: active

What did the screen give for FER (GeneID 2241), technical replicate 2?
viability, normalised (%): 55.3; Outcome: active

How did the screen score FER (GeneID 2241), technical replicate 3?
viability, normalised (%): 40; Outcome: active

Records listed so far whose target name begins with F or f (9):
FXR1 (GeneID 8087), technical replicate 1 | viability, normalised (%) = 42.9; Outcome = active
FXR1 (GeneID 8087), technical replicate 2 | viability, normalised (%) = 40.3; Outcome = active
FXR1 (GeneID 8087), technical replicate 3 | viability, normalised (%) = 48.1; Outcome = active
FLT1 (GeneID 2321), technical replicate 1 | viability, normalised (%) = 44.2; Outcome = active
FLT1 (GeneID 2321), technical replicate 2 | viability, normalised (%) = 41; Outcome = active
FLT1 (GeneID 2321), technical replicate 3 | viability, normalised (%) = 37.1; Outcome = active
FER (GeneID 2241), technical replicate 1 | viability, normalised (%) = 42.1; Outcome = active
FER (GeneID 2241), technical replicate 2 | viability, normalised (%) = 55.3; Outcome = active
FER (GeneID 2241), technical replicate 3 | viability, normalised (%) = 40; Outcome = active

The listing continues:
For STK17B (GeneID 9262), technical replicate 1, what was measured?
viability, normalised (%): 97.2; Outcome: inactive

How did the screen score STK17B (GeneID 9262), technical replicate 2?
viability, normalised (%): 80.1; Outcome: inactive

Which result is listed for STK17B (GeneID 9262), technical replicate 3?
viability, normalised (%): 92; Outcome: inactive

What is on record for FNTB (GeneID 2342), technical replicate 1?
viability, normalised (%): 34.3; Outcome: active

What is on record for FNTB (GeneID 2342), technical replicate 2?
viability, normalised (%): 44.8; Outcome: active

Which result is listed for FNTB (GeneID 2342), technical replicate 3?
viability, normalised (%): 24.7; Outcome: active

For DRD3 (GeneID 1814), technical replicate 1, what was measured?
viability, normalised (%): 32; Outcome: active

With DRD3 (GeneID 1814), technical replicate 2, what does the deposit list?
viability, normalised (%): 24.1; Outcome: active

With DRD3 (GeneID 1814), technical replicate 3, what was measured?
viability, normalised (%): 34.1; Outcome: active

For MAP3K12 (GeneID 7786), technical replicate 1, what was measured?
viability, normalised (%): 61; Outcome: active

What did the screen give for MAP3K12 (GeneID 7786), technical replicate 2?
viability, normalised (%): 61.9; Outcome: active

What did the screen give for MAP3K12 (GeneID 7786), technical replicate 3?
viability, normalised (%): 53.5; Outcome: active

How did the screen score PRDM13 (GeneID 59336), technical replicate 1?
viability, normalised (%): 43.2; Outcome: active

How did the screen score PRDM13 (GeneID 59336), technical replicate 2?
viability, normalised (%): 40.6; Outcome: active

For PRDM13 (GeneID 59336), technical replicate 3, how do the results read?
viability, normalised (%): 38.5; Outcome: active

For CTBP1-DT (GeneID 92070), technical replicate 1, what does the deposit list?
viability, normalised (%): 78.9; Outcome: active

How did the screen score CTBP1-DT (GeneID 92070), technical replicate 2?
viability, normalised (%): 73.6; Outcome: active

What did the screen give for CTBP1-DT (GeneID 92070), technical replicate 3?
viability, normalised (%): 65.5; Outcome: active

Which result is listed for BRWD3 (GeneID 254065), technical replicate 1?
viability, normalised (%): 69.2; Outcome: active

What did the screen give for BRWD3 (GeneID 254065), technical replicate 2?
viability, normalised (%): 53; Outcome: active

How did the screen score BRWD3 (GeneID 254065), technical replicate 3?
viability, normalised (%): 46.1; Outcome: active

What did the screen give for MYLK3 (GeneID 91807), technical replicate 1?
viability, normalised (%): 48.8; Outcome: active

For MYLK3 (GeneID 91807), technical replicate 2, how do the results read?
viability, normalised (%): 54.4; Outcome: active

What is on record for MYLK3 (GeneID 91807), technical replicate 3?
viability, normalised (%): 52.7; Outcome: active
